{"source": "patent US8999071B2", "about": "“Surfactants derived from oligoglycerols” (Dow Global Technologies LLC, priority 2011, dated 2015)", "key": {"[1]": {"experiment": "Shake foam test in deionized water", "details": "0.1 wt % in deionized water, 10 ml, shaken 10 minutes", "method": "Shake foam property of compounds 1 and 2 are tested and compared with Triton™ CG-110, a commercial surfactant from The Dow Chemical Company: 10 ml of surfactant solution in deionized water at 0.1 wt % is placed in a 100 ml wide-mouth bottle with cap. All the test solutions in bottles are secured on the plate of an orbital shaker and are shaken at for 10 minutes. After the shaking, the foam volume in each bottle is recorded at different times."}, "[2]": {"experiment": "Hard surface cleaning scrubbing test on soiled vinyl tile", "details": "1% surfactant, 3% DOWANOL PnB, 0.5% monoethanolamine in water; scrubbed 5 min; average of three tests (compound 4: two)", "method": "The efficiency for alkyl oligoglycerols to remove carbon black soil on a hard surface is evaluated by a scrubbing test. A vinyl tile is soiled by spreading 500 uL of a carbon black soil (61.06% naphtha, 27.62% caprylic/capric triglyceride, 8.15% soybean oil, and 3.17% carbon black) uniformly using a foam brush. The tile is air-dried in a fume hood over the weekend. The soiled tile is divided into 12 wells. Surfactant formulations (600 uL 1% surfactant (examples 1-8), 3% DOWANOL™ PnB (a glycol ether containing propylene glycol n-butyl ether), 0.5% monoethanolamine in water are each added into individual wells. The soiled vinyl tile is scrubbed for 5 min with paper towel scrubbers. After scrubbing, cleaning solutions are removed and the wells are rinsed gently with DI water. The vinyl tile is dried overnight. The image of the vinyl tile is recorded with a scanner, and analyzed by imaging software ImageJ to determine the grey scale in each well. Each surfactant formulation is tested three times, except compound 4 which is tested two times. Average grey values are reported."}}}
{"smiles": "CCCCCCCCCOCC(O)COCC(O)CO", "note": "(centres unmarked) [Compound 1, 3-[3-(nonyloxy)-2-hydroxypropoxy]-1,2-propanediol]", "values": [{"measurement": "Shaken Foam Volume, 0 min.", "setting": "[1]; 0 min. after shaking", "result": 41, "unit": "mL"}, {"measurement": "Shaken Foam Volume, 20 min.", "setting": "[1]; 20 min. after shaking", "result": 40, "unit": "mL"}, {"measurement": "Shaken Foam Volume, 60 min.", "setting": "[1]; 60 min. after shaking", "result": 37, "unit": "mL"}, {"measurement": "Average Grey Scale Value", "setting": "[2]", "result": 116}]}
{"smiles": "CCCCCCCCCCCOCC(O)COCC(O)CO", "note": "(centres unmarked) [Compound 6, 3-(2-hydroxy-3-(undecyloxy)propoxy)propane-1,2-diol]", "values": [{"measurement": "Average Grey Scale Value", "setting": "[2]", "result": 150}]}
{"smiles": "CCCCCCCCCCOCC(O)COCC(O)CO", "note": "(centres unmarked) [Compound 4, 3[3-(decyloxy)-2-hydroxypropoxy]-1,2-propanediol]", "values": [{"measurement": "Average Grey Scale Value", "setting": "[2]", "result": 169}]}
{"smiles": "CCCCCC(CCC)COCC(O)COCC(O)CO", "note": "(centres unmarked) [Compound 3, 3-(2-hydroxy-3-((2-propylheptyl)oxy)propoxy)propane-1,2-diol]", "values": [{"measurement": "Average Grey Scale Value", "setting": "[2]", "result": 100}]}
{"smiles": "CC(C)CCCC(C)CCOCC(O)COCC(O)CO", "note": "(centres unmarked) [Compound 5, 3-(3((3,7-dimethyloctyl)oxy)-2-hydroxypropoxy)propane-1,2-diol]", "values": [{"measurement": "Average Grey Scale Value", "setting": "[2]", "result": 133}]}
